Test results: paper doi:10.1101/511394
For at least one entry, the source does not settle the construct or the ends of the probe. A weaker result is weaker than the reference pair of the same experiment. Protein sequences can lack the tags named with them.

Key:
[1] = target: T1, WDR76 (FLAG-HA, HEK293 purified) (Homo sapiens) (UniProt Q9H967); assay: EMSA; settings: 50 nM DNA; 5-methylcytosine at central CpG C8 of both strands
T1 sequence (looked up, limits assumed): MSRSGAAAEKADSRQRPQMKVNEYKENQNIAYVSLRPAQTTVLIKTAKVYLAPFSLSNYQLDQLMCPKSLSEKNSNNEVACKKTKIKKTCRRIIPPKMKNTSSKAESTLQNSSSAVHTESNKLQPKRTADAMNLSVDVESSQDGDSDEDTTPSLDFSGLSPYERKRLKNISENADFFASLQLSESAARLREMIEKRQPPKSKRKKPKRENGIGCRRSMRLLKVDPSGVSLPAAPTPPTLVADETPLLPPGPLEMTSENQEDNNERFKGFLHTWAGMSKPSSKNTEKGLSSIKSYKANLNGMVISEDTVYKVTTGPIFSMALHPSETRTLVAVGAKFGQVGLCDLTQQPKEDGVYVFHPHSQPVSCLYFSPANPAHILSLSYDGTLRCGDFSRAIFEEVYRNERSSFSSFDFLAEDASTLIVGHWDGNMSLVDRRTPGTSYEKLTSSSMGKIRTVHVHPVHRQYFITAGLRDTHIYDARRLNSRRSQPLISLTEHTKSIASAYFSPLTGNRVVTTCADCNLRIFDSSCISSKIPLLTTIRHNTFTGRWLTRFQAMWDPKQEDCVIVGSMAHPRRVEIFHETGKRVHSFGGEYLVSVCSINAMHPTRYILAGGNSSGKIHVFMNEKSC

[2] = target: T2, C3ORF37/HMCES full-length (UniProt Q96FZ2); assay: filter binding; settings: weak binding
T2 sequence (looked up, limits assumed): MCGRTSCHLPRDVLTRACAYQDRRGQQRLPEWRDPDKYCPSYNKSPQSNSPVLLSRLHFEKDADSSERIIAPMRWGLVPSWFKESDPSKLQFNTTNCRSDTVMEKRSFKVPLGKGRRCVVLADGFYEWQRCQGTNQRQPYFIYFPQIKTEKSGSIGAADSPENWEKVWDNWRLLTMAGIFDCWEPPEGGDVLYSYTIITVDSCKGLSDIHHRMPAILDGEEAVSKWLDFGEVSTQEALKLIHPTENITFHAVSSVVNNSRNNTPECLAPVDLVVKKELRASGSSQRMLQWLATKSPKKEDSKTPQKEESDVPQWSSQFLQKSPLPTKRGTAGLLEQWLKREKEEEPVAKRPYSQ

Sequence: GCGGCTGCGTGGGTCC (double strand) [mC/mC duplex]
- binding result [1]: binds more weakly
- binding result ([2]; 5-methylcytosine at central CpG C8 of both strands): binds more weakly

Sequence: GCGGCTGCGTGGGTCC (double strand) [hmC/hmC duplex]
- binding result ([2]; 5-hydroxymethylcytosine at central CpG C8 of both strands): binds more weakly
